The values that follow are results of earlier work, collected in patent US4683227A, “Antibiotic derivatives of 7β-[2-(thiazol-4-yl)acetamide]-3-chloro-3-cephem-4-carboxylic acids and compositions and method of use thereof” (Eli Lilly and Company, priority 1985, dated 1987).

For this data set the following is noted: oral; background; cited from earlier work.

For the molecule `CC1=C(C(=O)O)N2C(=O)[C@@H](NC(=O)[C@H](N)c3ccccc3)[C@H]2SC1` [cephalexin], the “absorption from the gastrointestinal tract” value was “high absorption”.
